Measured values reported in patent US8952181B2, “Organic semiconductive material precursor containing dithienobenzodithiophene derivative, ink, insulating member, charge-transporting member, and organic electronic device” (Ricoh Company, Ltd., priority 2010, dated 2015).

Test: Organic thin film transistor (FET) electric properties
Details: for operation of field-effect transistor without heat treatment: heat treatment at 260° C. for 30 seconds not performed
Experimental: A field-effect transistor having the structure shown in FIG. 1D was produced using Example Compound 1 synthesized in Example 1, in the following manner.
A N-doped silicon substrate having a 300 nm-thick thermal oxide film was immersed in concentrated sulfuric acid for 24 hours, followed by washing.
On this substrate, CT4112 (manufactured by KYOCERA Chemical Corporation) was spin coated, cured at approximately 200° C., to thereby produce a polyimide film having a thickness of 500 nm. Next, Example Compound 1 obtained in Example 1 was added in a chloroform solution to form the chloroform solution containing 0.5% by mass of Example Compound 1, followed by spin coating the solution, to thereby form a thin film of Example Compound 1. Next, the thin film of Example Compound 1 was heated on a hot plate at 260° C. for 30 seconds, so as to convert the thin film of Example Compound 1 to that of Example Compound 1-2.
Gold was then vacuum-deposited (back pressure: up to 10^−4 Pa, deposition rate: 1 Å/s to 2 Å/s, film thickness: 50 nm) on the organic semiconductive layer using a shadow mask, to thereby form a source electrode and a drain electrode (channel length: 50 μm, channel width: 2 mm).
The FET (field-effect transistor) element obtained in this manner was evaluated with respect to its electric properties under the atmospheric air by means of a semiconductor parameter analyzer 4156C manufactured by Agilent Technologies.
Note that, the following formula was used for calculating the field-effect mobility of the organic thin film transistor. Ids=μCinW(Vg−Vth)^2/2L
In the formula above, Cin represents a capacitance per unit area of the gate insulating film, W represents a channel width, L represents a cannel length, Vg represents a gate voltage, Ids represents a source-drain current, μ represents mobility, and Vth represents a gate threshold voltage at which a channel starts to be formed.
Field-effect transistors were produced in the same manner as in Example 8, except that the organic semiconductive material precursor and the conversion temperature of the organic semiconductive material precursor were changed respectively to those shown in Table 1, and that silver was used for the source electrode and the drain electrode.

[1] = precursor film heated at 260° C. for 30 seconds, gold source and drain electrodes, atmospheric air
[2] = as Example 8 but silver source and drain electrodes
[3] = silver source and drain electrodes, conversion temperature of precursor as in Table 1 (195-250° C.)

SMILES	operation of field-effect transistor without heat treatment	transistor type (precursor film heated at 260° C. for 30 seconds, gold electrodes, atmospheric air)	Field-effect mobility [1]	threshold voltage [1]	Field-effect mobility [2]	threshold voltage [2]	Field-effect mobility [3]	On-off ratio [3]
CC(C)(C)C(=O)OC(Cc1ccccc1)c1cc2sc3cc4c(cc3c2s1)sc1cc(C(Cc2ccccc2)OC(=O)C(C)(C)C)sc14 (centres unmarked) [Example Compound 1]	not operated	p-type	0.5 cm^2/Vs	−0.2 V				
CCCCCC(=O)OC(Cc1ccccc1)c1cc2sc3cc4c(cc3c2s1)sc1cc(C(Cc2ccccc2)OC(=O)CCCCC)sc14 (centres unmarked) [Example Compound 2]	not operated		0.33 cm^2/Vs	−0.6 V	0.91 cm^2/Vs	−6.6 V		
CCCCCOC(=O)OC(Cc1ccccc1)c1cc2sc3cc4c(cc3c2s1)sc1cc(C(Cc2ccccc2)OC(=O)OCCCCC)sc14 (centres unmarked) [Example Compound 11]							0.7 cm^2/Vs	10^5
COC(Cc1ccccc1)c1cc2sc3cc4c(cc3c2s1)sc1cc(C(Cc2ccccc2)OC)sc14 (centres unmarked) [Example Compound 12]							1.6 cm^2/Vs	10^6
O=C(CCl)OC(Cc1ccccc1)c1cc2sc3cc4c(cc3c2s1)sc1cc(C(Cc2ccccc2)OC(=O)CCl)sc14 (centres unmarked) [Example Compound 14]							0.2 cm^2/Vs	10^4
O=C(CCC(F)(F)F)OC(Cc1ccccc1)c1cc2sc3cc4c(cc3c2s1)sc1cc(C(Cc2ccccc2)OC(=O)CCC(F)(F)F)sc14 (centres unmarked) [Example Compound 15]							0.6 cm^2/Vs	10^4
